Assay results reported in patent US20130331317A1.
Results are given in words; binding and its absence hold for the method and conditions named. Some entries that bind do so weakly or less than the wild type.

Protein sequences, listed by entry. Tags and fused reporters are not part of them. Lines headed by an entry give the natural chain unless they say otherwise; changes in a name come on top. Residues count along the entry.
UniProt P11362, residues 142-365: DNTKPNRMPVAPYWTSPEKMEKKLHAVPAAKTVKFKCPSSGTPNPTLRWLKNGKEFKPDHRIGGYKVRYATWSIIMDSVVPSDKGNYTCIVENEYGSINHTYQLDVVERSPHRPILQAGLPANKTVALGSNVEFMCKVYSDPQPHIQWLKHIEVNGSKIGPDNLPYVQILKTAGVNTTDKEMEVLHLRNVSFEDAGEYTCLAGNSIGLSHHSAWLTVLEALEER
UniProt P09038: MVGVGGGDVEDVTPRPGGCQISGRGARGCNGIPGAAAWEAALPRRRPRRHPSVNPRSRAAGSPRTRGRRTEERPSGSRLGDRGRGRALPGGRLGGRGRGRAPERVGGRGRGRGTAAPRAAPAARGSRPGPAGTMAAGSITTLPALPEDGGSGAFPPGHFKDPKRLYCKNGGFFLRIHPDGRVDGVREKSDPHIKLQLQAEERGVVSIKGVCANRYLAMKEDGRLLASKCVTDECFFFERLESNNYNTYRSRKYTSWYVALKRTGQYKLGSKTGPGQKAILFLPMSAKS

Legend:
[1] = target: ligand-binding domain of human FGFR1c (D142 to R365) (human) (UniProt P11362); assay: SPR; FGFR1c ligand-binding domain passed over immobilised FGF
[2] = target: ligand-binding domain of human FGFR1c (D142 to R365) (human) (UniProt P11362); assay: SPR; FGFR1c ligand-binding domain passed over immobilised FGF2
[3] = target: ligand-binding domain of human FGFR1c (D142 to R365) (human) (UniProt P11362); assay: SPR; increasing concentrations of FGFR1c ligand-binding domain passed over immobilised FGF2

binding [1]: binds | binding [2]: binds | binding [3]: binds
Substance: human FGF2 (M1 to S155) (from UniProt P09038 134-288) (ligand)
